{"source": "patent US6228841A", "about": "“Peptide derivatives” (Daiichi Pharmaceutical Co., Ltd., priority 1995, dated 2001)", "test_system": "mice", "assay": "analgesic activity by pressure stimulation method (base of tail)", "type": "in vivo", "protocol": "The analgesic activities of peptide derivatives of the present invention were evaluated by pressure stimulation method as follows. Mice were subjected to pressure stimulation at the bases of their tails at a rate of 10 mmHg/second. […] For the experiments, mice that were preliminary determined to respond to a pressure of 40-50 mmHg were used. The maximum stimulating pressure was 100 mmHg. Analgesic activity was calculated as percent of maximum possible effect (% of MPE) according to the following equation: [formula]\nwherein Po is the pain reaction threshold before the administration of a drug; Pt is the pain reaction threshold \"t\" minutes after the administration of the drug; and Pc is the maximum stimulating pressure. According to a dose-response curve, ED50 value was determined as a dose of drug providing 50% of % of MEP and used for comparison of analgesic activity of drugs.", "note": "Part of at least one peptide drawing is inferred or uncertain, most often the ends."}
{"compound": "CC(=N)N[C@@H](Cc1ccc(O)cc1)C(=O)N[C@H](CCCNC(=N)N)C(=O)N[C@@H](Cc1ccccc1)C(=O)N(C)CCC(=O)O", "note": "[Example 11, N-Acetimidoyl-Tyr-D-Arg-Phe-MeβAla-OH.diacetate]", "values": [{"measurement": "ED50 (dose providing 50% of % of MPE, analgesic activity)", "setting": "oral administration", "value": 2.65, "unit": "mg/kg"}, {"measurement": "ED50 (dose providing 50% of % of MPE, analgesic activity)", "setting": "subcutaneous administration (skin in the backs)", "value": 0.098, "unit": "mg/kg"}]}
